PubChem BioAssay AID504810 (National Center for Advancing Translational Sciences (NCATS), 2011)
About 670 (0.2%) of roughly 330,000 compounds were called active. Inconclusive results, whose numbers are uncertain, are shown with a selection of clear calls.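 The calls were made as follows: active = activity change below a set negative limit, meaning inhibition stronger than a set level (cut at about -70% in these data); inconclusive = activity change between two set negative limits; inactive = the rest.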

Sequences of proteins named here, by UniProt entry; tags and fusion partners are left off.
UniProt P16473, whole entry, looked up: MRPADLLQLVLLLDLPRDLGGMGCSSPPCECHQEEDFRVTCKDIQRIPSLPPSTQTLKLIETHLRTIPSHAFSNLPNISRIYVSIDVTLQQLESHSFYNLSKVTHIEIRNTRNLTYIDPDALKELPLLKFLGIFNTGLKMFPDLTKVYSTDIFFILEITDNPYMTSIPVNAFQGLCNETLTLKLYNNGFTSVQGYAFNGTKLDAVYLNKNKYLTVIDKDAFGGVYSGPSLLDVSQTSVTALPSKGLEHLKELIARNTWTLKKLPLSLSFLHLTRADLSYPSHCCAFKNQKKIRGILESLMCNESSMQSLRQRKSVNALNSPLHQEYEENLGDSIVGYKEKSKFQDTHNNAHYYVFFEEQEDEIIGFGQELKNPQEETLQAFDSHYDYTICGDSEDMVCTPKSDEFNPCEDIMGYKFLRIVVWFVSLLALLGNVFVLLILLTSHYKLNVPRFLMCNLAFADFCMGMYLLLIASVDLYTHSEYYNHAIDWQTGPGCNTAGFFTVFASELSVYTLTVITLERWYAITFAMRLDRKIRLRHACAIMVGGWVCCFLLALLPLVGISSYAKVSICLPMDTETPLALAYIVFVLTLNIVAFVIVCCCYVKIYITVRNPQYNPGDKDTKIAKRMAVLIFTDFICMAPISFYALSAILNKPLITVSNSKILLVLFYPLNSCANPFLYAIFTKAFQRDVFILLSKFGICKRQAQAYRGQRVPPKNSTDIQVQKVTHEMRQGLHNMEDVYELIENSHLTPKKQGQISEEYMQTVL

target: Thyrotropin receptor (Homo sapiens) (UniProt P16473); assay: Antagonists of the Thyroid Stimulating Hormone Receptor: HTS campaign; settings: TSHR-expressing cells, TSH-stimulated cAMP HTRF, 2 h; at 11.5 µM; hits give low values
Excerpt: The thyroid-stimulating hormone receptor (TSHR) is a member of the 7 trans-membrane-spanning receptor (7TMR) family of cell surface receptors. TSHR-mediated hyperthyroidism is important in thyroid pathology. The development of small molecule antagonists of TSHR may lead to therapeutic approaches for TSHR-mediated hyperthyroidism caused by constitutively activating mutations or stimulating auto-antibodies associated with Graves' disease. Graves' disease is the leading cause of hyperthyroidism and is caused by autoantibodies that stimulate TSHR (TsAbs) causing thyroid growth and unregulated overproduction of thyroid hormones and existing treatments have liabilities (agranulocytosis). In addition, TSHRs are known to be expressed in multiple extrathyroidal tissues including bone, brain, kidney, testis, fat and cells of the immune system but the role of the TSHR in these tissues is not clear. Therefore, TSHR antagonists/inverse agonists could be used as probes of extrathyroidal TSHR function. Finally, TSHR inverse agonists, which are a subclass of antagonists that inhibit agonist-independent (or basal or constitutive) TSHR signaling, could be used to inhibit TSH-independent signaling in patients with recurrent or metastatic thyroid cancer who are receiving thyroid hormone to suppress TSH. In collaboration between scientist from the NCGC and the NIDDK, a miniaturized HTRF high-throughput screen was developed. It's a cell based assay, where an anti cAMP antibody contains a fluorescent cryptate tag (excitation 337 nm; emission 620 nm) and the acceptor is cAMP-d2 (excitation 620 nm; emission 665 nm). When antibody and cAMP-d2 interact and are excited by a 337 nm light, a FRET occurs resulting in emission at 665 nm. The assay is competition between cAMP-d2 and cAMP (from the cell lysate). The homogeneous protocol allows for one step dispense after stimulation that is automation friendly. NIH Chemical Genomics Center [NCGC] NIH Molecular Libraries Probe Centers Network [MLPCN] MLPCN Grant: MH090855-01 Assay Submitter (PI): Marvin Gerhengorn
1. 3ul of 200 TSHR freshly harvested cells/well are dispensed into a 1536 TC-treated white solid bottom plate. 2. Through pintool addition, 23nl of compounds and control in 100% DMSO are added to the plate. 3. Then 1ul of EC80 TSH (4nM final) is added to the plate. 4. Assay is incubated at 37 deg C for 2 hours. 5. 2ul of cAMP antibody diluted 1:20 in lysis buffer is added. 6. Immediately following, 2ul of d2 diluted 1:20 in HBSS is added seperately. 7. The assay is incubated for 30 minutes at ambient room temperature. 8. The result is obtained by using a ViewLux read-out with HTRF settings.
% is scaled to controls: 0 for no effect and ±100 for the full control effect.

Activity change, negative = inhibition, inactive:
O=C(CCl)Nc1cccc(S(=O)(=O)N2CCCCCC2)c1 -4.24%
CCOc1ccc(Nc2oc(-c3ccc(Cl)cc3)nc2C#N)cc1 -2.68%
COCCn1c(=S)[nH]c2cc(C(=O)N3CCN(c4cccc(Cl)c4)CC3)ccc2c1=O -6.8%
COc1cc(/C=C(\C#N)C(N)=O)ccc1OS(=O)(=O)c1ccc(C)cc1 -8.61%
C/C(=N\NC(=O)c1ccncc1)c1ccc(N(C)C)cc1 5.85%
Cc1ccc(OCCn2c(C)c(/C=N/n3cnnc3)c3ccccc32)cc1 1.04%
COc1cc(/C=C2\SC(=S)N(NS(=O)(=O)c3ccc(C)cc3)C2=O)cc(OC)c1OC -1.27%
Cc1ccc(-c2nnn(CC(=O)NC(=O)NC3CCCCC3)n2)cc1 -11.8%
Cc1nnc2c(N3CCN(C(=O)c4ccco4)CC3)nc3ccccc3n12 1.09%
CCOc1ccccc1NC(=O)COC(=O)C(Cc1ccccc1)NC(=O)c1ccco1 (configuration not stated) 0.257%
COCCNC(=S)Nc1ccccn1 8.68%
CCc1cccc(NC(=O)C2CCCN(S(=O)(=O)c3cccs3)C2)c1 (configuration not stated) 17%
CCN(CC(=O)NCc1ccc(F)cc1)Cc1nc2cc(Cl)ccc2c(=O)[nH]1 -18.1%
O=C(COc1cc(Cl)c(Cl)cc1Cl)N1CCN(c2ccccn2)CC1 3.83%
O=C(c1ccc(N2CCCC2)c([N+](=O)[O-])c1)N1CCc2ccccc2C1 -3.68%
c1ccc(Cn2cnc3ccccc32)cc1 -9.07%
COc1cc(OC)cc(C(=O)NC(=S)NCc2ccco2)c1 -12.8%
O=C(CCNC(=O)c1ccccc1Cl)N/N=C\c1ccc(O)cc1 -3.61%
CC(=O)Nc1ccc(S(=O)(=O)NCCC(=O)Nc2cccc(Cl)c2)cc1 7.36%
O=C(O)CCSCCCN1C(=O)c2cccc3cccc(c23)C1=O -28.6%
Cc1nn(-c2ccccn2)c2c1C(c1ccsc1)C1=C(CCCC1=O)N2 (configuration not stated) -15.7%
Cc1ccc(-n2cccc2/C=C2/C(=N)N3C(=NC2=O)SN=C3S(C)(=O)=O)cc1 -14.5%
Cc1ccc([C@H]2C(C(=O)O)=CC[C@@H](c3ccc(Cl)c(Cl)c3)N2S(=O)(=O)c2ccc(C)cc2)cc1 -11.4%

Activity change, negative = inhibition, active:
CN(c1ccccc1)S(=O)(=O)c1cc(C(=O)Nc2nc3ccccc3[nH]2)ccc1Cl -76.7%
O=c1[nH]c(C2CCN(S(=O)(=O)c3cccc(Cl)c3)CC2)nc2c1nnn2Cc1ccccc1 -103%
CC(=O)Nc1cc(OC(C)=O)c2nonc2c1OC(C)=O -74.4%
COc1ccc(C(CC(=O)N2CCOCC2)c2c(OC)cc(OC)c3c(-c4ccccc4)cc(=O)oc23)cc1 (configuration not stated) -82%
CCOc1cc(CNc2ccc(N(C)C)cc2)cc(Br)c1OCC(=O)NC(C)(C)C -76.3%
Cc1ccc2cccc(Oc3ncnc4scc(-c5ccccc5)c34)c2n1 -84%
CCN(CC)CCN1C(=O)c2cccc3cc(N)cc(c23)C1=O -75.9%
CCCCNc1c(-c2cccc(-c3ccc(OC)cc3)c2)nc2ccc(C)cn12 -83.5%
CC[n+]1c(/C=C/N(C)c2ccccc2)n(-c2ccccc2)c2ccc(-c3nc4ccccc4s3)cc21 -98.2%
CCOc1ccccc1NC(=O)C(NCCc1ccc(OC)cc1)c1ccccc1 (configuration not stated) -73.2%
Cc1nn(-c2ccccc2)c(Cl)c1/C=C1\SC(=S)NC1=O -79%
CN(C)c1ccc(NC(=S)c2ccc3ccccc3n2)cc1 -91.4%

Arranged by formula weight (ascending): some entries from above
Activity change, negative = inhibition, active:
CC(=O)Nc1cc(OC(C)=O)c2nonc2c1OC(C)=O -74.4%
CN(C)c1ccc(NC(=S)c2ccc3ccccc3n2)cc1 -91.4%
CCN(CC)CCN1C(=O)c2cccc3cc(N)cc(c23)C1=O -75.9%
CCCCNc1c(-c2cccc(-c3ccc(OC)cc3)c2)nc2ccc(C)cn12 -83.5%
CN(c1ccccc1)S(=O)(=O)c1cc(C(=O)Nc2nc3ccccc3[nH]2)ccc1Cl -76.7%
COc1ccc(C(CC(=O)N2CCOCC2)c2c(OC)cc(OC)c3c(-c4ccccc4)cc(=O)oc23)cc1 (configuration not stated) -82%

Next part.

Activity change, negative = inhibition, inconclusive:
CC1=N/C(=C\c2ccc([N+](=O)[O-])cc2)C(=O)N1c1ccc(Cl)cc1 -57.9%
CCOC(=O)c1ccc(OCCOc2ccccc2C)cc1 -53.3%
CCc1ccccc1N(C(=O)c1snc(C(N)=O)c1N)C(C(=O)NCC1CCCO1)c1ccc(C)o1 (configuration not stated) -52.7%
Cc1cccc(NC(=O)C2C3CCC4C(CCC32)C4(Cl)Cl)c1 (configuration not stated) -50.7%
N#C/C(=N/Nc1ccc(OC(F)(F)F)cc1)C(N)=S -51.8%
CS(=O)(=O)c1ccc(C(=O)OCC(=O)Nc2cccnc2Cl)cc1[N+](=O)[O-] -60.8%
O=C1/C(=C/c2ccc(O)c([N+](=O)[O-])c2)SC(=S)N1Cc1ccccc1 -52.7%
C/C(=N\NC(=O)c1ccc(Br)cc1)C1C(=O)c2ccccc2C1=O -61.6%
CC(C)(C)OC(=O)N1CCC(NC(=O)c2[nH]cnc2C(=O)N[C@@H](Cc2ccccc2)C(=O)OCc2ccccc2)CC1 -58.6%
O=Cc1c[nH]c2ccc(C(=O)c3ccccc3)cc12 -69.6%
CCCCNC(=O)CC1C(=O)N(Cc2ccccc2)C(C)c2nc3ccccc3n21 (configuration not stated) -51.9%
O=C(Nc1ccccc1)C1=C(c2ccccc2)S(=O)(=O)CCS1(=O)=O -52.3%
COc1ccccc1NC(=O)NNC(=O)CCN1CCOCC1 -56.4%
CCS(=O)(=O)c1ccc(C(=O)Nc2ccccc2)c(Cl)c1Cl -50.5%
C=CS(=O)(=O)c1sc(Cl)c(N2CCOCC2)c1[N+](=O)[O-] -65.4%
O=C(/C(N=Nc1cccc([N+](=O)[O-])c1)=C(/O)c1ccc(Br)cc1)C(F)(F)F -54.7%
Cc1ccn(C(C)CC(=O)Nc2ccc(-c3ccno3)cc2)n1 (configuration not stated) -51.1%
COc1ccc(CCNC2=C(Cl)C(=O)N(CCc3ccccc3)C2=O)cc1OC -69.7%
CC(=O)c1c(C)[nH]c(C(=O)COc2cc(C)ccc2C(C)C)c1C -67.8%
CC1(C)CC[C@]2(C(=O)O)CC[C@]3(C)C(=CC[C@@H]4[C@@]5(C)CC[C@H](O[C@@H]6O[C@H](C(=O)O)[C@@H](O)[C@H](O[C@@H]7OC[C@H](O)[C@H](O)[C@H]7O)[C@H]6O)C(C)(C)[C@@H]5CC[C@]43C)[C@@H]2C1 -62.5%
CC(C)CC(C(=O)OCC(=O)Nc1ncc(Cl)cc1Cl)N1C(=O)c2ccccc2C1=O (configuration not stated) -67.1%
CCOc1ccc(N(CC(=O)N/N=C/c2cc([N+](=O)[O-])ccc2Cl)S(C)(=O)=O)cc1 -61.8%
N#Cc1ccc(NC(=O)Nc2ccc(Cl)cc2)cc1 -56%
Cc1ccc(NC(=O)Nc2cccc([N+](=O)[O-])c2)cc1F -50.6%
Cc1cccc(NC(=O)c2ccc(Cl)c(S(=O)(=O)N3CCc4ccccc43)c2)n1 -67.2%
CC(=O)Nc1ccc(N/C=C/C(=O)c2ccc(C)cc2)cc1 -63.2%
Cc1ccc(C)c(CNc2ccc(S(=O)(=O)N3CCCCC3)cc2)c1 -58%
CCc1cc2cccc(C)c2nc1SCC(=O)Nc1cc(C)on1 -50.9%
CCNS(=O)(=O)c1ccc(CCC(=O)NCc2ccccn2)cc1 -52.9%
COc1ccc(C(=O)c2ccccc2)c2c(O)ccc(C(=O)c3ccccc3)c12 -55.5%
CC[C@@H](C)[C@H](NC(=O)OC(C)(C)C)c1nnc(S(=O)(=O)Cc2cc(C)ccc2C)o1 -56.3%
CCN(C[C@H]1N[C@@](Cc2ccccc2)(C(=O)OC)[C@H]2C(=O)N(Cc3ccccc3)C(=O)[C@@H]12)C(=O)Nc1ccc(C(F)(F)F)cc1 -56.4%
Cc1ccc(NC(=O)COc2cccc(Oc3ccccc3)c2)cc1S(=O)(=O)N1CCOCC1 -56.6%
COc1ccc(C)cc1-n1nnnc1SCc1cc(=O)n2cc(C)ccc2n1 -51.3%
Cc1ccc(NC(=S)NC(=O)c2c(-c3ccccc3Cl)noc2C)cc1 -59%
FC(F)(F)c1cccnc1N1CCN(c2ncnc3nc[nH]c23)CC1 -58.3%
CCCc1noc2c1/C(=N\O)CC(CC(C)SCC)C2 (configuration not stated) -57.6%
O=C(NCCc1ccccc1)c1ccc2c(=O)[nH]c3c(C(=O)NCC4CCCO4)sc(=S)n3c2c1 (configuration not stated) -50.5%
Cc1ccccc1OCCSCc1nc2ccccc2[nH]1 -55%
Nc1ccc(S(=O)(=O)Nc2nc(-c3ccccc3)cc(-c3ccccc3)n2)cc1 -63.1%
Cc1ccc(Cl)cc1N1CCN(C(=O)CSc2nnc3n2C(C)(C)Cc2ccccc2-3)CC1 -56.5%
COc1ccc(N(C)S(=O)(=O)c2cccc(C(=O)Nc3nc(C)cs3)c2)cc1 -52%
C=CS(=O)c1sc(Cl)c(N2CCOCC2)c1[N+](=O)[O-] (configuration not stated) -53.5%
COc1ccc(N2CCN(C(c3ccccc3)c3nnnn3Cc3ccc(F)cc3)CC2)cc1 (configuration not stated) -56.9%
O=C1c2ccccc2C(=O)N1CCCc1c[nH]c2ccc(Cl)cc12 -52.8%
CCCCOCCCNc1ncnc2c1[nH]c1ccccc12 -54.6%
O=C(NC(Nc1nc2ccc([N+](=O)[O-])cc2s1)(C(F)(F)F)C(F)(F)F)c1cccnc1 -53.5%
